The list is a part of this screen's results and no random one: it gathers tests that were run many times, whatever their T/C, doses with no T/C, and many T/C values between a quarter and a half above the control. Further doses and runs are listed elsewhere. T/C gives the treated animals as a percentage of the vehicle group. Some entries give survivors of the animals treated and no T/C: the source holds a T/C of zero for them, seemingly a mark for toxic or unscored doses. Some survivor counts are full or nearly so, which does not show that the dose was tolerated: the source hardly ever lists a survival T/C far under the control, and the zero likely stands for such cases as well. Survivors were counted at the toxicity check, usually on the fifth day, unless a day is given; later deaths do not show. Schedule codes are those of the source, taken here to give the interval after Q, in days (D) or hours (H), and the number of doses after X. Some schedules carry Z or #; the key to these is not given. For survival time, this PubChem deposit counts one and a half times the control or more as active, and values a quarter to a half above the control carry no call in these data; other NCI protocols may use other cut-offs. Some entries were tested several times; their values stand side by side, smallest first.
Test system: L1210 leukemia ip in BDF1 mice, survival T/C
Assay: NCI In Vivo Anticancer Drug Screen. Data for tumor model L1210 Leukemia (intraperitoneal) in B6D2F1 (BDF1) mice
Conditions: T/C endpoint: mean survival time, higher T/C = longer survival
[1] = dose: 50.0 mg/kg/injection, schedule: Q04DX003 (ip), vehicle: saline
[2] = dose: 400.0 mg/kg/injection, schedule: Q01DX009 (ip), vehicle: Klucel (hydroxypropylcellulose) (HPC)
[3] = dose: 400.0 mg/kg/injection, schedule: Q01DX009 (ip), vehicle: saline with Tween-80
[4] = dose: 400.0 mg/kg/injection, schedule: Q01DX001 (ip), vehicle: saline
[5] = dose: 300.0 mg/kg/injection, schedule: Q01DX001 (ip), vehicle: saline
[6] = dose: 100.0 mg/kg/injection, schedule: Q04DX003 (ip), vehicle: saline

Compound: Clc1cc(Cl)nc(N2CC2)n1
- survivor count (dose: 0.05 mg/kg/injection, schedule: Q01DX Z (ip), vehicle: methylcellulose (MC)): 1 of 6
- survivor count (dose: 1.0 mg/kg/injection, schedule: Q01DX Z (ip), vehicle: methylcellulose (MC)): 2 of 6
- survivor count (dose: 3.0 mg/kg/injection, schedule: Q01DX Z (ip), vehicle: methylcellulose (MC)): 0 of 6
- survivor count (dose: 6.0 mg/kg/injection, schedule: Q01DX Z (ip), vehicle: methylcellulose (MC)): 1 of 6
- survivor count (dose: 12.0 mg/kg/injection, schedule: Q01DX Z (ip), vehicle: methylcellulose (MC)): 0 of 6
- survivor count (dose: 25.0 mg/kg/injection, schedule: Q01DX009 (ip), vehicle: acetone): 0 of 6
- survivor count (dose: 25.0 mg/kg/injection, schedule: Q01DX Z (ip), vehicle: methylcellulose (MC)): 0 of 6
- survivor count (dose: 50.0 mg/kg/injection, schedule: Q01DX Z (ip), vehicle: methylcellulose (MC)): 0 of 6
- survivor count [1]: 2 of 6
- survivor count (dose: 100.0 mg/kg/injection, schedule: Q01DX Z (ip), vehicle: methylcellulose (MC)): 0 of 6
- survivor count (dose: 100.0 mg/kg/injection, schedule: Q04DX003 (ip), vehicle: acetone): 0 of 6
- survivor count (dose: 200.0 mg/kg/injection, schedule: Q01DX Z (ip), vehicle: methylcellulose (MC)): 0 of 6
- survivor count (dose: 200.0 mg/kg/injection, schedule: Q04DX003 (ip), vehicle: acetone): 0 of 6
- survivor count (dose: 400.0 mg/kg/injection, schedule: Q04DX003 (ip), vehicle: acetone): 0 of 6

Compound: ClCc1nc2ccccc2s1
- survivor count [2]: 0 of 3

Compound: NC(=S)c1ccc(Cl)cc1
- survivor count [3]: 2 of 6

Compound: CC(=O)OCCC[P+](c1ccccc1)(c1ccccc1)c1ccccc1
- survivor count [4]: 0 of 6

Compound: Brc1csnn1
- survivor count (dose: 400.0 mg/kg/injection, schedule: Q01DX001 (ip), vehicle: carboxymethylcellulose (CMC)): 2 of 4

Compound: COc1ccc(COC2C(O)C(CO)OC2n2ccc(N)nc2=O)cc1 (stereo unspecified)
- survivor count (dose: 200.0 mg/kg/injection, schedule: Q01DX005 (ip), vehicle: saline): 1 of 6

Compound: Cn1cnc([N+](=O)[O-])c1Sc1ncnc2nc[nH]c12
- T/C (dose: 27.0 mg/kg/injection, schedule: Q01DX Z (ip), vehicle: methylcellulose (MC)): 127 and 135 % of control
- survivor count (dose: 38.0 mg/kg/injection, schedule: Q01DX Z (ip), vehicle: methylcellulose (MC)): 3 of 6
- T/C (dose: 40.0 mg/kg/injection, schedule: Q01DX Z (ip), vehicle: methylcellulose (MC)): 130 and 135 % of control
- survivor count (dose: 57.0 mg/kg/injection, schedule: Q01DX Z (ip), vehicle: methylcellulose (MC)): 2 of 6
- T/C (dose: 60.0 mg/kg/injection, schedule: Q01DX Z (ip), vehicle: methylcellulose (MC)): 125 % of control
- survivor count (dose: 85.0 mg/kg/injection, schedule: Q01DX Z (ip), vehicle: methylcellulose (MC)): 4 of 6
- survivor count (dose: 90.0 mg/kg/injection, schedule: Q01DX Z (ip), vehicle: methylcellulose (MC)): 5 of 6
- T/C (dose: 125.0 mg/kg/injection, schedule: Q01DX001 (ip), vehicle: carboxymethylcellulose (CMC)): 129 % of control
- survivor count (dose: 1000.0 mg/kg/injection, schedule: Q01DX001 (ip), vehicle: carboxymethylcellulose (CMC)): 5 of 6

Compound: C=CCCC1(CC=C)C(=O)NC(=O)NC1=O
- survivor count [5]: 0 of 6

Compound: Cc1c([N+](=O)[O-])cc(C(C)(C)C)c(OC(=O)C(Cl)(Cl)Cl)c1[N+](=O)[O-]
- survivor count (dose: 400.0 mg/kg/injection, schedule: Q04DX002 (ip), vehicle: Klucel (hydroxypropylcellulose) (HPC)): 3 of 3

Compound: CNC(=O)Oc1c(C)occc1=O
- T/C (dose: 300.0 mg/kg/injection, schedule: Q01DX009 (ip), vehicle: other): 138 % of control
- survivor count (dose: 450.0 mg/kg/injection, schedule: Q01DX009 (ip), vehicle: other): 1 of 6

Compound: BrCc1cccc2cccc(CBr)c12
- survivor count (dose: 400.0 mg/kg/injection, schedule: Q01DX001 (ip), vehicle: Klucel (hydroxypropylcellulose) (HPC)): 3 of 6

Compound: CN1C=c2c3c(ccc2=C2C=CC4C=C5OCOC5=CC4=C21)OCO3 (stereo unspecified)
- survivor count (dose: 40.0 mg/kg/injection, schedule: Q01DX001 (ip), vehicle: saline): 3 of 6
- survivor count [1]: 0 of 6
- survivor count (dose: 60.0 mg/kg/injection, schedule: Q01DX009 (ip), vehicle: saline): 0 of 6
- survivor count (dose: 80.0 mg/kg/injection, schedule: Q01DX001 (ip), vehicle: saline): 0 of 6
- survivor count [6]: 0 of 6

Compound: Cc1ccc(C)c(/C(=N\N=C(N)N)C2CC2)c1
- survivor count (dose: 120.0 mg/kg/injection, schedule: Q01DX Z (ip), vehicle: methylcellulose (MC)): 2 of 6
- survivor count (dose: 240.0 mg/kg/injection, schedule: Q01DX Z (oral), vehicle: methylcellulose (MC)): 4 of 6

Compound: CCCCn1cnc2c(SC)ncnc21
- survivor count [4]: 2 of 4

Compound: C[N+](C)(C)CCOC(=O)c1cccc(CBr)c1CBr
- survivor count [6]: 3 of 6
- survivor count (dose: 200.0 mg/kg/injection, schedule: Q04DX003 (ip), vehicle: saline): 0 of 6
- survivor count (dose: 400.0 mg/kg/injection, schedule: Q04DX003 (ip), vehicle: saline): 0 of 6

Compound: CN1C(=O)CC2(CCN(CCc3ccccc3)CC2)C1=O
- survivor count (dose: 100.0 mg/kg/injection, schedule: Q01DX009 (ip), vehicle: Klucel (hydroxypropylcellulose) (HPC)): 0 of 6
- survivor count (dose: 200.0 mg/kg/injection, schedule: Q01DX009 (ip), vehicle: Klucel (hydroxypropylcellulose) (HPC)): 0 of 6
- survivor count [2]: 0 of 6

Compound: Cc1ccc(C(O)CCN2CCOCC2)c(C)c1 (stereo unspecified)
- survivor count [4]: 2 of 4

Compound: CCCCN(C)CC#N
- survivor count (dose: 50.0 mg/kg/injection, schedule: Q04DX003 (ip), vehicle: saline with Tween-80): 0 of 6

Compound: CC(C)(C)CC(=O)OCCC[N+](C)(C)C
- survivor count (dose: 100.0 mg/kg/injection, schedule: Q01DX009 (ip), vehicle: water): 2 of 6
- survivor count (dose: 200.0 mg/kg/injection, schedule: Q01DX009 (ip), vehicle: water): 1 of 6
- survivor count (dose: 400.0 mg/kg/injection, schedule: Q01DX009 (ip), vehicle: water): 0 of 6

Compound: [N-]=[N+]=C1C(Cl)=C(Cl)C(Cl)=C1Cl
- survivor count (dose: 300.0 mg/kg/injection, schedule: Q01DX001 (ip), vehicle: other): 3 of 6

Compound: c1cc2c3c(cccc3c1)-c1nc3ccccc3nc1-2
- survivor count (dose: 75.0 mg/kg/injection, schedule: Q01DX Z (ip), vehicle: methylcellulose (MC)): 0 of 6
- survivor count (dose: 160.0 mg/kg/injection, schedule: Q01DX Z (ip), vehicle: methylcellulose (MC)): 0 of 6
- survivor count (dose: 240.0 mg/kg/injection, schedule: Q01DX Z (ip), vehicle: methylcellulose (MC)): 0 of 6
- survivor count (dose: 360.0 mg/kg/injection, schedule: Q01DX Z (ip), vehicle: methylcellulose (MC)): 0 of 6
- survivor count (dose: 540.0 mg/kg/injection, schedule: Q01DX Z (ip), vehicle: methylcellulose (MC)): 0 of 6

Compound: Clc1ccc(C[P+](c2ccccc2)(c2ccccc2)c2ccccc2)cc1Cl
- survivor count (dose: 5.0 mg/kg/injection, schedule: Q04DX003 (ip), vehicle: acetone): 6 of 6
- survivor count (dose: 10.0 mg/kg/injection, schedule: Q04DX003 (ip), vehicle: acetone): 6 of 6
- survivor count (dose: 20.0 mg/kg/injection, schedule: Q01DX001 (ip), vehicle: acetone): 0 of 6

Compound: O=C(CCCCl)Oc1ccccc1
- survivor count (dose: 200.0 mg/kg/injection, schedule: Q04DX003 (ip), vehicle: saline with Tween-80): 6 of 6
- survivor count [3]: 4 of 6
- survivor count (dose: 400.0 mg/kg/injection, schedule: Q04DX003 (ip), vehicle: saline with Tween-80): 6 of 6

Compound: C[N+](C)(C)CC1CCCCC1
- survivor count (dose: 150.0 mg/kg/injection, schedule: Q01DX001 (ip), vehicle: saline): 0 of 6
- survivor count [5]: 0 of 6

From PubChem BioAssay AID248 (DTP/NCI, 2004)
